PubChem BioAssay AID504784 – Drosophila RNAi Screening Center, 2011

- Screen: 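Fly genes whose silencing alters how much lipid cells keep in droplets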 (primary screen)
- Cell system: Drosophila Kc167 embryonic cells
- Knock-down reagent: long dsRNA against Drosophila genes, about 250 ng dsRNA per well
- Time to read-out: 4 days
- Conditions: cells fed 400 µM oleic acid bound to BSA
- Detection: 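Cells imaged and segmented; ratio of lipid droplet area to nuclear area, log-transformed, then normalised as a B-score over the screen; higher means more stored lipid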
- Direction: droplet/nuclear area B-score: higher = more stored lipid (overstorage)
The deposit covers about 17,000 reagents; below is an unselected part of those that have a named target and a result. 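Each column is one replicate's B-score; the combined score over replicates was not deposited, so single values may mislead.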 A plus sign joins genes that one reagent is predicted to hit. Not all columns of the deposit are shown.

no.	target gene	DRSC id	droplet/nuclear area B-score, replicate 1
1	Ir84a	DRSC12510	-1.17
2	CG12511	DRSC02171	0.695
3	CG4496	DRSC02753	-3.22
4	CG30391	DRSC21572	0.00388
5	CG9922	DRSC16579	1.27
6	CG9411	DRSC20184	0.94
7	CG13739	DRSC06410	2.72
8	CG13739	DRSC23200	-0.0318
9	CG15186	DRSC12566	-0.226
10	CG8839	DRSC07285	-0.357
11	CG7916	DRSC01901	-0.32
12	S	DRSC00785	0.0135
13	BCAS2	DRSC15693	-0.733
14	Ube3a	DRSC10600	-0.92
15	CG12947	DRSC14575	1.52
16	Ir60b	DRSC04217	-0.172
17	PIG-S	DRSC14643	1.89
18	PIG-S	DRSC15388	0.775
19	PIG-S	DRSC15952	0.142
20	Ubqn	DRSC19581	1.92
21	CecA1	DRSC16603	0.273
22	SRPK	DRSC07090	0.397
23	CG4822	DRSC00669	-1.92
24	CR11386 + CR33222	DRSC17781	0.0766
25	Prdm13	DRSC09970	-0.964
26	Tdrd3	DRSC10016	-0.911
27	Obp8a	DRSC17868	-1.27
28	Csas	DRSC22390	0.902
29	CG43316	DRSC06296	-1.34
30	CG43316	DRSC06297	-0.327
31	CG31251	DRSC16247	-2.02
32	CG10660	DRSC09769	2.88
33	Rad23	DRSC17167	0.00854
34	Acyp	DRSC01861	2.84
35	CG8500	DRSC16434	1.04
36	RpL4	DRSC16833	3.12
37	msb1l	DRSC03572	-0.193
38	Ldh	DRSC11198	0.981

Copied from the listing, 9 entries:
no.	target gene	DRSC id	droplet/nuclear area B-score, replicate 1
15	CG12947	DRSC14575	1.52
16	Ir60b	DRSC04217	-0.172
17	PIG-S	DRSC14643	1.89
18	PIG-S	DRSC15388	0.775
19	PIG-S	DRSC15952	0.142
20	Ubqn	DRSC19581	1.92
21	CecA1	DRSC16603	0.273
22	SRPK	DRSC07090	0.397
23	CG4822	DRSC00669	-1.92

Continued.
no.	target gene	DRSC id	droplet/nuclear area B-score, replicate 1
39	S6k	DRSC11276	1.35
40	CG18547	DRSC15345	0.88
41	Tsp42Ee	DRSC05947	0.422
42	PolE4	DRSC04105	1.43
43	ago	DRSC08463	1.1
44	CG3437	DRSC10366	-0.0365
45	CG7906	DRSC10928	0.684
46	RabGGTb	DRSC00804	1.62
47	PlexB	DRSC17177	0.283
48	CG32100	DRSC09725	1.07
49	CG32100	DRSC10331	-1.12
50	mmy	DRSC02002	1.46
51	CG31743 + CG34313	DRSC02781	-0.971
52	CG31743 + CG34313	DRSC02782	0.917
53	Cluap1	DRSC20637	1.88
54	CG16736	DRSC15145	0.747
55	Adar	DRSC17725	0.802
56	CG2871	DRSC18230	1.1
57	CG2871	DRSC21719	0.671
